{"source": "patent US20210277441A1", "about": "“METHOD OF SELECTING A POLYPEPTIDE OF INTEREST” (IMPERIAL COLLEGE INNOVATIONS LIMITED, priority 2018, published 2021)", "key": {"[1]": {"assay": "Kinetics of evolved and parental enzymes, 2-methylpyrroline as variable substrate", "assay_type": "biochemical", "settings": "variable substrate 2-methylpyrroline; cofactor NADH (0.25 mM)"}, "[2]": {"assay": "Kinetics of evolved and parental enzymes, isopropanol as variable substrate", "assay_type": "biochemical", "settings": "cofactor NADP+ (1 mM)"}}, "note": "The name of at least one read-out is uncertain.", "data": [{"molecule": "MsIRED-s: MsIRED variant with N32E, R33V, T34R and K37R, NADH-dependent (protein, variant of Myxococcus stipitatus imine reductase, MsIRED variant with N32E, R33V, T34R and K37R, NADH-dependent) MKPTLTVIGAGRMGSALIKAFLQSGYTTTVWEVRKARSEPLAKLGAHLADTVRDAVKRSDIIVVNVLDYDTSDQLLRQDEVTRELRGKLLVQLTSGSPALAREQETWARQHGIDYLDGAIMATPDFIGQAECALLYSGSAALFEKHRAVLNVLGGATSHVGEDVGHASALDSALLFQMWGTLFGTLQALAISRAEGIPLEKTTAFIKLTEPVTQGAVADVLTRVQQNRLTADAQTLASLEAHNVAFQHLLALCEERNIHRGVADAMYSVIREAVKAGHGKDDFAILTRFLK", "values": [{"measurement": "kcat/Km", "setting": "[1]", "value": 67, "unit": "M⁻¹ s⁻¹"}]}, {"molecule": "Clostridium beijerinckii alcohol dehydrogenase (protein, listed as Clostridium beijerinckii) MKGFAMLGINKLGWIEKERPVAGSYDAIVRPLAVSPCTSDIHTVFEGALGDRKNMILGHEAVGEVVEVGSEVKDFKPGDRVIVPCTTPDWRSLEVQAGFQQHSNGMLAGWKFSNFKDGVFGEYFHVNDADMNLAILPKDMPLENAVMITDMMTTGFHGAELADIQMGSSVVVIGIGAVGLMGIAGAKLRGAGRIIGVGSRPICVEAAKFYGATDILNYKNGHIVDQVMKLTNGKGVDRVIMAGGGSETLSQAVSMVKPGGIISNINYHGSGDALLIPRVEWGCGMAHKTIKGGLCPGGRLRAEMLRDMVVYNRVDLSKLVTHVYHGFDHIEEALLLMKDKPKDLIKAVVIL", "values": [{"measurement": "kcat/Km", "setting": "[2]", "value": 3410, "unit": "M⁻¹ s⁻¹"}]}]}
